From article PMC9569500 come the findings set out here.

No constants are given. Whether binding was seen depends on the method and setting. Sequences can lack the tags named with a protein.

This assay addresses RepA (rep type protein encoded by repA of shuttle vector pWM321, derived from plasmid pC2A), N-terminal His-tagged (Methanosarcina acetivorans) (UniProt P94911). As to the kind of experiment: SEC; purified RepA-His6 on an ENrich SEC 650 column in His-tag buffer (50 mM NaH2PO4, 300 mM NaCl, pH 6.9), 0.5 mL/min, calibrated with the Bio-Rad gel filtration standard; both purified.

B1: RepA (rep type protein encoded by repA of shuttle vector pWM321, derived from plasmid pC2A), N-terminal His-tagged (protein, UniProt P94911 1-536)
chain: MSSDFSSRPGAVSYAPECRDFATCICTDGVLCPVRNKKNGVSICKYYSCPDFDFSKCSKYRPLKVGDFVLPAKGKRPAYCGRPFTYAVSENYNARKDLNSHCNTLSCPGCGILSELQHRFALVVILWTYALFSGQFPSWGFASMDFSRGVSVEAIRLFRRNLKDRLERWGVTAGTTIFHPYRIKPEITRAIRKLTGLKGNDDSEAFWNYIRDDHNEGNLNKIADLLNIEINSIYDCLILAPHFHFFIFPGNIRITGKNPKSKKRCKSDEYDIFIQRLSHKVNGKRQWELRSLMDIYKQVTYLYSHVGQLTDNRYGNIHIESRFGALFRWHPDKVVSSSGKLTFEQLIDTRTEVLNLINEGREVKLVYNGELKWEGQENDDTGWIPLTKLRDHFSGGRQALHAYLKEAKAVKPEYADYLQQLIARNNFYHNLKGRDGKNKVPKKWRKLWASPFKVDELPEFLKLEPAGSLLRVWFLEGLPDPPAGFLVVDSHQWEHDGCIIEESPEMPSNSLQKASEINYEELFTSLKSRSMMFGGD
For B1, the binding result is on record as “no binding”.
